Laboratory results taken from paper PMC13324451 (The Journal of Biological Chemistry, 2026).
No constants are given. Whether binding was seen depends on the method and setting. In cells and extracts the contact can be indirect. Here binding means that the protein was enriched with, or labelled near, the bait; the list need not be complete. Tags and fused reporters may be left off the sequences shown.

Molecular target: T1, VgrG3 with a C-terminal haemagglutinin epitope tag (VgrG3-HA) (Chromobacterium violaceum ATCC 12472) (UniProt Q7NY43)
T1 sequence: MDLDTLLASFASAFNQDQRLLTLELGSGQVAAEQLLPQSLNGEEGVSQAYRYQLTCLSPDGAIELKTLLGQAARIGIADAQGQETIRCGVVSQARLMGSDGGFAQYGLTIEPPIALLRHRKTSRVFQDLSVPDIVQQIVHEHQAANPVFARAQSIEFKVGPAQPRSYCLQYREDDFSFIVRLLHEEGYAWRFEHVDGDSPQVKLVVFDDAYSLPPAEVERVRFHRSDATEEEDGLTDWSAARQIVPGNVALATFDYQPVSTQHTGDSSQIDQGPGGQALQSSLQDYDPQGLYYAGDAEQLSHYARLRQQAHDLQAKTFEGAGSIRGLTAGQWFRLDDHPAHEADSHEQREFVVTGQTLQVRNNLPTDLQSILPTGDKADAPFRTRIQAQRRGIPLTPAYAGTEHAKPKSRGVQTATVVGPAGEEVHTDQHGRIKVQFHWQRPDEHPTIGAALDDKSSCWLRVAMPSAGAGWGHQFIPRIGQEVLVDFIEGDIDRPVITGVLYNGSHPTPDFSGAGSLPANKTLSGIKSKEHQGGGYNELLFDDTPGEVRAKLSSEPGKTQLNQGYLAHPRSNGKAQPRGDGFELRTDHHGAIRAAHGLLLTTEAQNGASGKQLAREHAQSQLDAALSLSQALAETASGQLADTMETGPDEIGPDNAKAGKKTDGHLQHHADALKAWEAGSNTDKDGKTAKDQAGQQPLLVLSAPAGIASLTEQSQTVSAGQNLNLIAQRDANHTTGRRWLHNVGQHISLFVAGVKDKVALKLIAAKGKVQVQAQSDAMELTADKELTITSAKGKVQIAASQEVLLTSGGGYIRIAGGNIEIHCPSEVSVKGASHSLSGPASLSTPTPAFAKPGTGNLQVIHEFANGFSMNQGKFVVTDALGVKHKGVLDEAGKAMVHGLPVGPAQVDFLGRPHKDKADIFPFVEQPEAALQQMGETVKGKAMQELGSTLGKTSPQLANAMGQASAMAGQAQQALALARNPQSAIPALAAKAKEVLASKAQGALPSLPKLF
Assay: affinity purification with mass spectrometry; VgrG3-HA precipitated with HA-tag rabbit mAb magnetic beads from the soluble fraction of C. violaceum vgrG3-HA cells (untagged wild type as control); 16 h at 4 °C; 20 mM Tris-Cl pH 7.5, 150 mM NaCl, 0.5 mM EDTA, 0.1% Triton X-100; label-free quantitative MS, biological triplicates

B1: DUF4123 domain-containing protein Tap-1 (CV_3987) (protein, UniProt Q7NQZ8 1-291)
chain: MYFAMDKGDVASLANALAEQIDASPMEWNWYALMDAGFDYNHRPLQLATANWPLYFQPEWGELRAVSPLLIDCPRQNNAIPAKLLRHCQGRPMLGFVASVLDVETLRDIWQRSLSLTTADGQPYILRFADTRIAATLSQTLSPPSWRRLCAPLTHWLIIDRAGTLQALDLAPSHLAVDEKDSWELTEPELAGLLRSAEPDALANRLSQDFAELLPASGAFLHHCLQRSCAALEEHHIENAPDQLMLAVAACLSQGRILDDPRLSQVLQSHALQKDGLGENLASLLDDISAL
binding: binds
